# Measured values from patent US20060205808A1, “Anti-inflammatory and cure for ageing, Alzheimer's disease on phloroglucinol derivatives” (Kaohsiung Medical University, priority 2005, published 2006).
# Some entries share one result that the patent states for a list of compounds. At least one compound was matched to its structure with a doubt left.
# Assays:
# N9 microglial cells = test: NO production (nitrite accumulation, Griess reaction) in N9 cells in response to LPS/IFN-γ; format: cell-based; conditions: LPS (10 ng mL^−1)/IFN-γ (10 U mL^−1)
# Procedure: (§1) Treatment of RAW 264.7 macrophage-like cells with LPS (1 μg mL^−1) or N9 microglial cells with LPS (10 ng mL^−1)/IFN-γ (10 U mL^−1) for 24 h induced NO production as assessed by measuring the accumulation of nitrite, a stable metabolite of NO, in the media, based on the Griess reaction. […] 1400 W was used in this experiment as a positive control.
# [1] = tested on: RAW 264.7 macrophage-like cells; test: NO production (nitrite accumulation, Griess reaction) in RAW 264.7 cells in response to LPS; format: cell-based; conditions: LPS (1 μg mL^−1)
# Procedure: as §1
smiles,measurement,setting,value
"CC(C)=CCC1CC23CC(O)C(C)(C)OC2(O)C(O)(CCC(C)(C)O)C(=O)C(C(=O)C(C)C)(C3=O)C1(C)C (centres unmarked) [Compound 3, garcinielliptone H]",effect on production of NO induced by LPS/IFN-γ in N9 cells (in words),N9 microglial cells,did not show significant effects
same,effect on production of NO induced by LPS in RAW 264.7 cells (in words),[1],did not show significant effects
